# According to article PMC7321161, “The Intriguing Effects of Substituents in the N-Phenethyl Moiety of Norhydromorphone: A Bifunctional Opioid from a Set of “Tail Wags Dog” Experiments” (Molecules, 2020):
# Legend:
# squirrel monkeys [1] = experiment: Squirrel monkey ventilation (whole-body plethysmograph, air or 5% CO2); format: in vivo, Saimiri sciureus; settings: ratio of ED50 values
# Description: Gas (either air or a 5% CO2 in air mixture) was introduced to and extracted from the chamber at a constant flow rate of 5 L/min. Experimental sessions consisted of 4–6 consecutive 30 min cycles, each comprising a 15 min exposure to air followed by a 15 min exposure to 5% CO2. Drug effects were determined using cumulative dosing procedures, and injections were administered following each exposure to 5% CO2. Respiratory rate and tidal volume (mL/breath) were recorded over 1 min periods and were multiplied to provide minute volumes. Data from the last three minutes of each exposure to air or CO2 were averaged and used for analysis of drug effects on ventilation.
# squirrel monkeys [2] = experiment: Operant responding (FR10 food reinforcement) in squirrel monkeys
structure (smiles),measurement,setting,value
"O=C1CCC2C3Cc4ccc(O)c5c4[C@@]2(CCN3CCc2ccc(Cl)cc2)[C@H]1O5 (stereo partly drawn) [Compound 2i, (7aR,12bS)-3-(4-Chlorophenethyl)-9-hydroxy-2,3,4,4a,5,6-hexahydro-1H-4,12-methanobenzofuro[3,2-e]-isoquinolin-7(7aH)-one]",Potency Ratio Respiratory Depression: Antinociception,squirrel monkeys [1],3.9
same,Potency Ratio Respiratory Depression: Behavioral Disruption,squirrel monkeys [1],2 and 2.6
same,ED50 ratios (behavioral impairment/antinociception),squirrel monkeys [2]; antinociception at 50 °C or 52 °C,≤ 2
same,Potency Ratio Behavioral Disruption: Antinociception,"squirrel monkeys [2]; ratio of ED50 values, 52 °C",1.5

# Where “and” joins values, the source holds several entries; their conditions need not be identical. Equal values may be shown once.
